The text below walks through data of the supplement of paper PMC8728848.

Assay in all cases: glycan array binding signal (z-score within array); higher = stronger binding
Conditions in all cases: glycan notation: IUPAC condensed, linker removed

Assay [1] has as its target Gal(b1-4)GlcNAc(b1-2)Man(a1-3)[Gal(b1-4)GlcNAc(b1-2)Man(a1-6)]Man(b1-4)GlcNAc(b1-4)GlcNAc. Put shortly: (§1)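 Glycan array data were curated from 3228 arrays in the Consortium for Functional Glycomics database and kept only where the protein sequence was available. Glycan names were converted to IUPAC-condensed notation, and columns mapping to the same glycan were averaged. The binding signal is a within-array Z-score, averaged across arrays of the same protein sequence at different concentrations or buffers and across linkers. Negative Z-scores can be read as non-binding.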

The target of assay [2] is Gal(b1-4)GlcNAc(b1-2)Man(a1-3)[Gal(b1-4)GlcNAc(b1-2)Man(a1-6)]Man(b1-4)GlcNAc(b1-4)[Fuc(a1-6)]GlcNAc. In short, it runs like this: as §1
The target of assay [3] is Gal(b1-4)GlcNAc(b1-2)Man(a1-3)[Gal(b1-4)GlcNAc(b1-2)Man(a1-6)][Gal(b1-4)GlcNAc(b1-4)]Man(b1-4)GlcNAc(b1-4)[Fuc(a1-6)]GlcNAc. In short, it runs like this: as §1
Assay [4] deals with Gal(b1-4)GlcNAc(b1-2)Man(a1-3)[Gal(b1-4)GlcNAc(b1-2)Man(a1-6)][GlcNAc(b1-4)]Man(b1-4)GlcNAc(b1-4)[Fuc(a1-6)]GlcNAc. Put shortly:
as §1

Assay [5] has as its target Gal(b1-4)GlcNAc(b1-2)Man(a1-3)[GlcNAc(b1-2)Man(a1-6)]Man(b1-4)GlcNAc(b1-4)GlcNAc. In short, it runs like this: as §1
Assay [6] deals with Gal(b1-4)GlcNAc(b1-2)Man(a1-3)[GlcNAc(b1-4)][Gal(b1-4)GlcNAc(b1-2)Man(a1-6)]Man(b1-4)GlcNAc(b1-4)GlcNAc. In short, it runs like this:
as §1

The target of assay [7] is Gal(b1-4)GlcNAc(b1-2)Man(a1-3)[Man(a1-6)]Man(b1-4)GlcNAc(b1-4)GlcNAc. In short, it runs like this: as §1
Assay [8] addresses Gal(b1-4)GlcNAc(b1-2)Man(a1-6)Man(b1-4)GlcNAc(b1-4)GlcNAc. In short, it runs like this:
as §1

The target in assay [9] is Gal(b1-4)GlcNAc(b1-2)Man(a1-6)[GlcNAc(b1-2)Man(a1-3)]Man(b1-4)GlcNAc(b1-4)GlcNAc. Put shortly:
as §1

In assay [10] the target is Gal(b1-4)GlcNAc(b1-2)Man(a1-6)[Man(a1-3)]Man(b1-4)GlcNAc(b1-4)GlcNAc. In short, it runs like this: as §1
For assay [11], the target named is Gal(b1-4)GlcNAc(b1-2)[Gal(b1-4)GlcNAc(b1-4)]Man(a1-3)[Gal(b1-4)GlcNAc(b1-2)Man(a1-6)]Man(b1-4)GlcNAc(b1-4)GlcNAc. Put shortly:
as §1

Assay [12] concerns the target Gal(b1-4)GlcNAc(b1-2)[Gal(b1-4)GlcNAc(b1-4)]Man(a1-3)[Gal(b1-4)GlcNAc(b1-2)[Gal(b1-4)GlcNAc(b1-6)]Man(a1-6)]Man(b1-4)GlcNAc(b1-4)GlcNAc. Put shortly: as §1
Assay [13] addresses Gal(b1-4)GlcNAc(b1-2)[Gal(b1-4)GlcNAc(b1-4)]Man(a1-3)[GlcNAc(b1-4)][Gal(b1-4)GlcNAc(b1-2)Man(a1-6)]Man(b1-4)GlcNAc(b1-4)GlcNAc. In short, it runs like this:
as §1

For assay [14], the target named is Gal(b1-4)GlcNAc(b1-2)[Gal(b1-4)GlcNAc(b1-4)]Man(a1-3)[GlcNAc(b1-4)][Gal(b1-4)GlcNAc(b1-2)[Gal(b1-4)GlcNAc(b1-6)]Man(a1-6)]Man(b1-4)GlcNAc(b1-4)GlcNAc. In short, it runs like this:
as §1

Assay [15] has as its target Gal(b1-4)GlcNAc(b1-2)[Gal(b1-4)GlcNAc(b1-6)]Man(a1-6)[Gal(b1-4)GlcNAc(b1-2)Man(a1-3)]Man(b1-4)GlcNAc(b1-4)GlcNAc. Put shortly: as §1
Assay [16] has as its target Gal(b1-4)GlcNAc(b1-2)[Gal(b1-4)GlcNAc(b1-6)]Man(a1-6)[Gal(b1-4)GlcNAc(b1-2)Man(a1-3)]Man(b1-4)GlcNAc(b1-4)[Fuc(a1-6)]GlcNAc. In short, it runs like this:
as §1

Assay [17] deals with Gal(b1-4)GlcNAc(b1-2)[Gal(b1-4)GlcNAc(b1-6)]Man(a1-6)[GlcNAc(b1-4)][Gal(b1-4)GlcNAc(b1-2)Man(a1-3)]Man(b1-4)GlcNAc(b1-4)GlcNAc. Put shortly:
as §1

In assay [18] the target is Gal(b1-4)GlcNAc(b1-2)[Gal(b1-4)GlcNAc(b1-6)]Man(a1-6)[GlcNAc(b1-4)][Gal(b1-4)GlcNAc(b1-2)[Gal(b1-4)GlcNAc(b1-4)]Man(a1-3)]Man(b1-4)GlcNAc(b1-4)[Fuc(a1-6)]GlcNAc. Put shortly:
as §1

For assay [19], the target named is Gal(b1-4)GlcNAc(b1-3)Gal(b1-3)GalNAc. Put shortly:
as §1

The target of assay [20] is Gal(b1-4)GlcNAc(b1-3)Gal(b1-3)GlcNAc. Put shortly: as §1
The target in assay [21] is Gal(b1-4)GlcNAc(b1-3)Gal(b1-4)Glc. In short, it runs like this: as §1
Assay [22] concerns the target Gal(b1-4)GlcNAc(b1-3)Gal(b1-4)GlcNAc. Put shortly:
as §1

Assay [23] deals with Gal(b1-4)GlcNAc(b1-3)Gal(b1-4)GlcNAc(b1-2)Man(a1-3)[Gal(b1-4)GlcNAc(b1-3)Gal(b1-4)GlcNAc(b1-2)Man(a1-6)]Man(b1-4)GlcNAc(b1-4)GlcNAc. Put shortly:
as §1

This is one part of the list.

B1: pTFF2 (Sus scrofa), P01359 (protein)
chain: KPAACRCSRQDPKNRVNCGFPGITSDQCFTSGCCFDSQVPGVPWCFKPLPAQESEECVMEVSARKNCGYPGISPEDCAARNCCFSDTIPEVPWCFFPMSVEACHY
Take B1: the “glycan array binding signal (z-score)” value was -1.6 in assay [1]; -0.621 in assay [2]; 0.089 in assay [3]; -1.21 in [4]; -0.258 in [5]; -1.45 in assay [6]. The “glycan array binding signal (z-score)” value is 0.659 in assay [7]; 0.009 in assay [8]; 0.896 in [9]; -1.37 in [10]; -0.702 in [11]; 1.07 in [12]. Besides, the “glycan array binding signal (z-score)” value in assay [13] was 0.232; in [14] it was -0.742; in [15] it was -1.84; in assay [16] it was 1.28; in assay [17] it was -1.08; in assay [18] it was 0.88. Besides, the “glycan array binding signal (z-score)” value was 0.891 in assay [19]; -1.31 in [20]; 0.128 in assay [21]; -0.47 in [22]; -0.706 in assay [23].
